PubChem BioAssay AID1259291 | Sanger Institute – 2017
Aim: 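Search for gene knock-downs that act synergistically alongside anchor drugs to kill cells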 (primary screen). System: HT29 human colorectal cancer cells. Reagents: siRNA pool against human genes. Treatment: anchor drugs added a day after transfection: BYL719 at 1 µM, cetuximab at 5 µg/ml or trametinib at 10 nM, or DMSO vehicle alone. Detection: 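Replicate-averaged viability relative to non-targeting pool, robust z-score based on control wells, plus per-drug synergy score for 1 µM BYL719, 5 µg/ml cetuximab and 10 nM trametinib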. Reading the numbers: robust z-score, knock-down alone and viability, knock-down alone: higher = more viable cells; synergy score with BYL719 and synergy score with cetuximab and synergy score with trametinib: higher = stronger synergistic killing with drug. Hit rule: 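a knock-down alone scoring under -3 on robust z-score is called essential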. Calls: active = essential (knock-down alone); inactive = no change alone.
This is one part, drawn at random, of 794 reagents tested. 15 of all reagents (1.9%) count as active. 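Calls rest on knock-down alone; drug synergy scores do not affect them; drugs added a day post-transfection, DMSO vehicle as comparison.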 Unmarked entries are inactive. No viability above 1 is reported: the scale is capped. The record does not give: the amount of reagent, the time to read-out.

| target | robust z-score, knock-down alone | viability, knock-down alone (fraction of control) | synergy score with BYL719 | synergy score with cetuximab | synergy score with trametinib |
| --- | --- | --- | --- | --- | --- |
| EIF2AK3 | 0.552 | 1 | 0.0617 | 0.0574 | 0.0273 |
| CLK2 | 0.552 | 1 | 0.0832 | 0 | -0.0912 |
| LYN | -0.237 | 0.951 | -0.172 | -0.049 | -0.0643 |
| GRK4 | -0.146 | 0.957 | 0.000404 | -0.0324 | -0.0191 |
| SMAD4 | 0.552 | 1 | 0.0628 | 0.0927 | 0.0272 |
| CLK1 | 0.552 | 1 | -0.158 | 0 | -0.0472 |
| INSRR | 0.552 | 1 | -0.029 | 0 | -0.158 |
| ZAP70 | -1.1 | 0.897 | -0.138 | -0.0135 | 0.0497 |
| CHKB | 0.552 | 1 | -0.0748 | 0 | -0.229 |
| MET | 0.552 | 1 | 0.000115 | 0.105 | 0.0288 |
| PRKAA1 | 0.552 | 1 | 0.0557 | 0.0993 | 0.024 |
| PRKCE | 0.404 | 0.991 | 0.108 | 0.0817 | 0.0561 |
| MAP2K7 | -3.63 (active) | 0.741 | -0.0759 | -0.0588 | -0.0426 |
| RBKS | 0.552 | 1 | -0.0955 | 0.0295 | -0.0101 |
| NRK | 0.205 | 0.978 | 0.0898 | 0.114 | 0.0906 |
| ACVR1B | 0.0252 | 0.967 | -0.0154 | 0.0413 | 0.0822 |
| PIP5K1B | 0.552 | 1 | 0.00451 | 0.0389 | 0.00887 |
| DUSP21 | 0.552 | 1 | -0.052 | 0.0263 | 0.0759 |
| MATK | 0.552 | 1 | 0.116 | 0.0397 | -0.015 |
| CAMK2B | 0.552 | 1 | 0.025 | 0.115 | -0.0394 |
| TRIM27 | 0.0667 | 0.97 | 0.134 | 0.164 | 0.0284 |
| DGKA | 0.337 | 0.987 | -0.029 | -0.0134 | -0.000407 |
| LMTK1 | -0.869 | 0.912 | -0.0377 | 0.093 | 0.128 |
| PRKAB1 | -1.84 | 0.852 | -0.0853 | -0.0431 | 0.0117 |
| TBCK | 0.552 | 1 | 0.152 | 0 | 0.0855 |
| RPS6KL1 | 0.552 | 1 | -0.0517 | 0.0198 | 0.16 |
| RBM10 | -0.177 | 0.955 | 0.117 | -0.0453 | -0.0633 |
| TJP2 | 0.552 | 1 | -0.0256 | 0 | -0.0658 |

Records listed above with an active call:
| target | robust z-score, knock-down alone | viability, knock-down alone (fraction of control) | synergy score with BYL719 | synergy score with cetuximab | synergy score with trametinib |
| --- | --- | --- | --- | --- | --- |
| MAP2K7 | -3.63 (active) | 0.741 | -0.0759 | -0.0588 | -0.0426 |

Further entries:
| target | robust z-score, knock-down alone | viability, knock-down alone (fraction of control) | synergy score with BYL719 | synergy score with cetuximab | synergy score with trametinib |
| --- | --- | --- | --- | --- | --- |
| EPHB6 | -0.61 | 0.928 | -0.072 | -0.013 | 0.00574 |
| SPEG | 0.428 | 0.992 | -0.0386 | -0.00598 | 0.112 |
| BMAL1 | -3.67 (active) | 0.738 | -0.0541 | -0.213 | -0.0708 |
| MVK | 0.552 | 1 | -0.0685 | 0.125 | 0.055 |
| MAP4K5 | 0.552 | 1 | 0.078 | 0.108 | 0.0742 |
| TEC | 0.552 | 1 | 0.0141 | 0.044 | -0.056 |
| MYH10 | -0.526 | 0.933 | -0.0321 | -0.0504 | 0.111 |
| AURKB | 0.552 | 1 | 0.098 | 0.252 | 0.178 |
| ERN1 | 0.552 | 1 | -0.0953 | 0.0468 | 0.143 |
| CSK | 0.248 | 0.981 | 0.0179 | 0.0588 | -0.0536 |
| TTK | 0.552 | 1 | 0.0846 | 0.154 | -0.0858 |
| MAPK10 | 0.552 | 1 | -0.0311 | 0 | 0.0684 |
| AXL | 0.535 | 0.999 | 0.0229 | 0.0852 | -0.0247 |
| PRKDC | 0.0113 | 0.966 | 0.12 | 0.0474 | -0.00317 |
| MERTK | 0.00971 | 0.966 | -0.0295 | -0.0337 | 0.0114 |
| TNNI3K | 0.552 | 1 | -0.112 | 0.0431 | 0.0319 |
| PLK2 | 0.552 | 1 | 0.0146 | 0.0546 | 0.0451 |
| AK7 | 0.552 | 1 | -0.118 | 0.092 | -0.063 |
| ERBB4 | 0.552 | 1 | 0.0687 | 0 | 0.108 |
| PLK3 | 0.552 | 1 | -0.00935 | 0 | -0.0205 |
| MAP4K1 | 0.552 | 1 | 0.00684 | 0.0567 | -0.0606 |
| STK17A | 0.552 | 1 | -0.00733 | 0 | -0.0211 |
| EPHA8 | 0.552 | 1 | 0.0112 | 0.0631 | 0.0248 |
| RIOK1 | 0.552 | 1 | -0.0275 | 0.154 | 0.115 |
| PDGFRB | 0.552 | 1 | 0.131 | 0.184 | -0.0148 |
| MTOR | 0.552 | 1 | 0.113 | 0 | -0.0147 |
| TNK2 | -0.0298 | 0.964 | 0.106 | 0.00822 | -0.0253 |
| ULK2 | 0.552 | 1 | -0.00808 | 0.0908 | 0.132 |
| CAMK2N1 | 0.552 | 1 | 0.0983 | 0.275 | 0.0996 |
| SLK | 0.552 | 1 | -0.00513 | 0.0364 | 0.0105 |
| STK24 | 0.552 | 1 | 0.083 | 0.275 | 0.0814 |
| CAMK1D | 0.552 | 1 | -0.00452 | 0.0104 | -0.0202 |
| BRWD1 | -0.32 | 0.946 | 0.0165 | 0.00576 | -0.0176 |
| PDK3 | 0.552 | 1 | -0.0354 | 0.0782 | 0.0874 |
| PGK1 | 0.552 | 1 | 0.0428 | 0.0373 | -0.00612 |
